From patent publication US20240101668A1
No constants are given. Whether binding was seen depends on the method and setting. Some results given as binding are weak or reduced against the parent protein; the word gives no strength.

By UniProt entry, the sequences of proteins in these tests, tags left out. Where a name states a change or a piece, a line headed by the entry shows the natural chain unless it says otherwise. Chains listed by the source or under a name are the forms on record and can include a tag or linker.
huCLL1-Q244-Avi-Tev-His (Q5QGZ9, form named): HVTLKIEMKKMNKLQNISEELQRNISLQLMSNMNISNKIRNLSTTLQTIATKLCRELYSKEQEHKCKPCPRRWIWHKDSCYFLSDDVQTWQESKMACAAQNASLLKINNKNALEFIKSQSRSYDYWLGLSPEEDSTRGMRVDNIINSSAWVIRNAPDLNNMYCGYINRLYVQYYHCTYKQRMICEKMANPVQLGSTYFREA

Molecular target: huCLL1-Q244-Avi-Tev-His (human) (UniProt Q5QGZ9)
Assay: BLI

B1: Polypeptide No. 87 (scFv, V domains shown)
VH: QVQLVQSGAEVKKPGASVKVSCKASGYSFTNYYIHWVRQAPGQGLEWMGWMNPYTGQTGYAQKFQGRVTMTRDTSTSTVYMELSSLRSEDTAVYYCTTDEETMDFHLWGRGTLVTVSS
VL: DIQMTQSPSSLSASVGDRVTITCZASQSISSYLNWYQQKPGKAPKLLIYDASNLETGVPSRFSGSGSGTDFTLTISSLQPEDFATYYCQQANTFPITFGQGTRLEIKR
B1 was tested, and the binding was “binds”.
